PubChem BioAssay AID504793 | Drosophila RNAi Screening Center – 2011

- Assay: 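Genes required for cells to halt at G2/M after double-strand DNA breaks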 (primary screen)
- Cells: Drosophila S2R+ cells
- Knock-down reagent: long dsRNA against Drosophila genes, about 0.25 µg dsRNA per well
- Timing: 4 days of dsRNA, then 4 hours of drug before read-out
- Conditions: doxorubicin 0.5 µM for 4 hours to cause double-strand breaks, in cells also given a low, harmless dose of dsRNA against nbs to sensitise the assay
- Detection: 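Per-well count of mitotic cells stained for phospho-histone H3 after doxorubicin exposure, used as mitotic index; counts are raw and not normalised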
- Reading the numbers: mitotic cells: higher = more cells in mitosis, weaker G2 arrest
- Hit rule: 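a call needs confirmation in secondary tests, with other dsRNAs and a check of mitotic timing without damage, not just a high primary count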
- Calls: active = confirmed in follow-up tests; inactive = not confirmed
The screen tested about 23,000 reagents; this is a random part of those that have a named target and a result. In the full data, 62 (0.27%) got an active call. 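Calls come from follow-up tests whose scores are not deposited, so confirmed genes may have low counts here; counts are not normalised per plate.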 The raw values are shown without normalisation. Names joined by + are all predicted targets of the reagent.

| Target gene | dsRNA | mitotic cells, replicate 1 | activity call |
| --- | --- | --- | --- |
| CG11593 | DRSC08206 | 9 | inactive |
| CG5376 | DRSC15782 | 11 | inactive |
| CG5376 | DRSC29433 | 2 | inactive |
| CG11458 | DRSC23399 | 11 | inactive |
| stops (slow termination of phototransduction) | DRSC15095 | 4 | inactive |
| stops (slow termination of phototransduction) | DRSC15096 | 10 | inactive |
| stops (slow termination of phototransduction) | DRSC15097 | 10 | inactive |
| CG1407 | DRSC29339 | 2 | inactive |
| MTA1-like (Metastasis associated 1-like) | DRSC12382 | 6 | inactive |
| MTA1-like (Metastasis associated 1-like) | DRSC22022 | 15 | inactive |
| MTA1-like (Metastasis associated 1-like) | DRSC23683 | 8 | inactive |
| MTA1-like (Metastasis associated 1-like) | DRSC24944 | 6 | inactive |
| CG10254 | DRSC14153 | 2 | inactive |
| CG10254 | DRSC29495 | 7 | inactive |
| CG13033 | DRSC09913 | 4 | inactive |
| CG13033 | DRSC25379 | 11 | inactive |
| CG10694 | DRSC14263 | 5 | inactive |
| RhoGEF4 (Rho guanine nucleotide exchange factor 4) | DRSC11011 | 3 | inactive |
| RhoGEF4 (Rho guanine nucleotide exchange factor 4) | DRSC26016 | 6 | inactive |
| Ntan1 (N-terminal amidohydrolase 1) | DRSC07546 | 6 | inactive |
| CG10089 | DRSC09695 | 3 | inactive |
| CG10089 | DRSC25988 | 4 | inactive |
| unc (uncoordinated) | DRSC20511 | 4 | inactive |
| unc (uncoordinated) | DRSC27962 | 1 | inactive |
| Glt (Glutactin) | DRSC03333 | 5 | inactive |
| Glt (Glutactin) | DRSC28681 | 9 | inactive |
| Pcp (Pupal cuticle protein) | DRSC03395 | 8 | inactive |
| Teh3 (tipE homolog 3) | DRSC08537 | 2 | inactive |
| Teh3 (tipE homolog 3) | DRSC29472 | 6 | inactive |
| Syx6 (Syntaxin 6) | DRSC07032 | 5 | inactive |
| Syx6 (Syntaxin 6) | DRSC25244 | 12 | inactive |
| Kots (Kotsubu) | DRSC16581 | 5 | inactive |
| CG11106 | DRSC19381 | 8 | inactive |
| Irk1 (Inwardly rectifying potassium channel 1) | DRSC16106 | 7 | inactive |
| MrgBP (MRG/MORF4L binding protein) | DRSC06417 | 10 | inactive |
| MrgBP (MRG/MORF4L binding protein) | DRSC29948 | 13 | inactive |
| alpha-Est5 (alpha-Esterase-5) | DRSC12617 | 4 | inactive |
| swm (second mitotic wave missing) | DRSC02012 | 13 | inactive |
| swm (second mitotic wave missing) | DRSC21831 | 5 | inactive |
| Mkp + CG34140 | DRSC08585 | 2 | inactive |
| CG14820 | DRSC10191 | 3 | inactive |
| CG12917 | DRSC06231 | 4 | inactive |
| CG30122 | DRSC06935 | 5 | inactive |
| Cpr76Bc (Cuticular protein 76Bc) | DRSC11062 | 9 | inactive |
| Cpr76Bc (Cuticular protein 76Bc) | DRSC27478 | 11 | inactive |
| Mettl2 (Methyltransferase like 2) | DRSC08398 | 5 | inactive |
| Mettl2 (Methyltransferase like 2) | DRSC29727 | 8 | inactive |
| CG14042 + SP555 | DRSC02367 | 6 | inactive |
| CG14042 + SP555 | DRSC03428 | 3 | inactive |
| rho (rhomboid) | DRSC08734 | 9 | inactive |
| l(3)psg2 (lethal (3) persistent salivary gland 2) | DRSC10484 | 1 | inactive |
| l(3)psg2 (lethal (3) persistent salivary gland 2) | DRSC24075 | 4 | inactive |
| inc (insomniac) | DRSC17954 | 7 | inactive |
| inc (insomniac) | DRSC18512 | 11 | inactive |
| inc (insomniac) | DRSC28898 | 3 | inactive |
| Pax (Paxillin) | DRSC01703 | 8 | inactive |
| Pax (Paxillin) | DRSC02651 | 7 | inactive |
| Pax (Paxillin) | DRSC02652 | 4 | inactive |
| Ir94h (Ionotropic receptor 94h) | DRSC15232 | 5 | inactive |
| CAH16 (Carbonic anhydrase 16) | DRSC15371 | 5 | inactive |
| CAH16 (Carbonic anhydrase 16) | DRSC27986 | 3 | inactive |
| CG44836 | DRSC09915 | 1 | inactive |
| CG44836 | DRSC26572 | 9 | inactive |
| Cpr100A (Cuticular protein 100A) | DRSC14465 | 5 | inactive |
| Cpr100A (Cuticular protein 100A) | DRSC28530 | 7 | inactive |
| Ir8a (Ionotropic receptor 8a) | DRSC17817 | 5 | inactive |
| Ir8a (Ionotropic receptor 8a) | DRSC17869 | 9 | inactive |
| Grx1t (Glutaredoxin 1, testis-specific) | DRSC04530 | 6 | inactive |
| Grx1t (Glutaredoxin 1, testis-specific) | DRSC28633 | 1 | inactive |
| CG9467 | DRSC16498 | 8 | inactive |
| stv (starvin) | DRSC10111 | 6 | inactive |
| stv (starvin) | DRSC24419 | 6 | inactive |
| Prosbeta4 (Proteasome beta4 subunit) | DRSC02603 | 32 | inactive |
| CG3817 | DRSC15515 | 8 | inactive |
| CG3817 | DRSC27548 | 8 | inactive |
| CG14618 | DRSC20631 | 8 | inactive |
| gem (gemini) | DRSC06093 | 6 | inactive |
| gem (gemini) | DRSC06847 | 11 | inactive |
| Spn55B (Serpin 55B) | DRSC07694 | 4 | inactive |
| Spn55B (Serpin 55B) | DRSC21862 | 6 | inactive |
| Spn55B (Serpin 55B) | DRSC27961 | 6 | inactive |
| Cyp6t2Psi (pseudo) | DRSC01840 | 8 | inactive |
| Cyp6t2Psi (pseudo) | DRSC29500 | 7 | inactive |
| CG9016 | DRSC03127 | 7 | inactive |
| CG9016 | DRSC24205 | 11 | inactive |
| CG5026 | DRSC10470 | 7 | inactive |
| CG17571 | DRSC01768 | 7 | inactive |
| CG17571 | DRSC03755 | 8 | inactive |
| CG17571 | DRSC25111 | 7 | inactive |
| CG17234 | DRSC00490 | 6 | inactive |
| CG3225 | DRSC00578 | 4 | inactive |
| CG3225 | DRSC30078 | 5 | inactive |
| CG1738 | DRSC19772 | 9 | inactive |
| CG1738 | DRSC29312 | 3 | inactive |
| MRG15 (MORF-related gene 15) | DRSC16731 | 6 | inactive |
| dod (dodo) | DRSC20577 | 7 | inactive |
| dod (dodo) | DRSC26403 | 2 | inactive |
| CG33062 | DRSC22195 | 17 | inactive |
| CG33062 | DRSC27501 | 4 | inactive |
| gas (gasoline) | DRSC04521 | 8 | inactive |
| obst-F (obstructor-F) | DRSC10805 | 7 | inactive |
| obst-F (obstructor-F) | DRSC30097 | 2 | inactive |
| ppk18 (pickpocket 18) | DRSC02216 | 4 | inactive |
| Jra (Jun-related antigen) | DRSC07447 | 3 | inactive |
| Jra (Jun-related antigen) | DRSC27606 | 12 | inactive |
| HDAC3 (Histone deacetylase 3) | DRSC12352 | 12 | inactive |
| CG5746 | DRSC15868 | 5 | inactive |
| CG5746 | DRSC25452 | 6 | inactive |
| CG15879 | DRSC08487 | 3 | inactive |
| CG15879 | DRSC27002 | 9 | inactive |
